Laboratory results from PubChem BioAssay.
Inconclusive results, whose numbers are uncertain, are shown with a selection of clear calls. Potencies beside an inconclusive call are fits to weak or partial responses and may not hold up. Activity calls are given as the source filed them. Cut-off not given; nearly all actives show AC50 up to about 26 µM.

Assay: growth inhibition of DIPG glioma cells, dose response, cell-based, SU-DIPG-XVII, MIPE5.0, CellTiter-Glo, qHTS (AID 1347060);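 on AC50: cells exposed to compound for 48 hours before viability readout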
Conditions: SU-DIPG-XVII viability, CellTiter-Glo ATP luminescence

Row | Structure (SMILES) | AC50 | outcome
1 | CCCS(=O)(=O)c1nc(NC2CC2)cc(-c2ccc3c(ccn3C3CC(C)(C)NC(C)(C)C3)c2)n1 | active: 3.93 µM | 
2 | CONC(=O)Nc1ccc(-c2sc3c(c2CN(C)C)c(=O)n(-c2ccc(OC)nn2)c(=O)n3Cc2c(F)cccc2F)cc1 | inconclusive: 0.00118 µM | 
3 | CC(C)N(CCC(=O)c1ccc2ccccc2c1)Cc1ccccc1 | active: 7.42 µM | 
4 | CCN(CC)CCNC(=O)c1c(C)[nH]c(/C=C2/C(=O)Nc3ccc(-c4csc(-c5ccccc5)n4)cc32)c1C | active: 3.32 µM | 
5 | CN1CC[C@@H](c2c(O)cc(O)c3c(=O)cc(-c4ccc(C(F)(F)F)cc4Cl)oc23)[C@@H]1CO | inconclusive: 20.9 µM [cytotoxic] | 
6 | C=Cc1cc(O)cc2nc(-c3ccc(O)c(F)c3)oc12 | inconclusive: 37.2 µM [cytotoxic] | 
7 | CSC[C@H]1CN(Cc2c[nH]c3c(N)ncnc23)C[C@@H]1O | inconclusive: 37.2 µM [cytotoxic] | 
8 | CNC(=O)c1cccc2cc(Oc3ccnc4cc(OCC5(N)CC5)c(OC)cc34)ccc12 | active: 1.48 µM | 
9 | Oc1ccc(Nc2nc(-c3ccc(Cl)cc3)cs2)cc1 | inconclusive: 16.6 µM [cytotoxic] | 
10 | C[C@@H](C(=O)Nc1ccc(Cl)cc1)C1CCC(c2ccnc3ccc(F)cc23)CC1 (some centres not stated) | inconclusive: 33.2 µM [cytotoxic] | 
11 | Nc1ccc(F)cc1NC(=O)c1ccc(CNC(=O)/C=C/c2cccnc2)cc1 | inconclusive: 14.8 µM [cytotoxic] | 
12 | COC1(c2sc3c(N4CCOCC4)nc(-c4cnc(N)nc4)nc3c2C)COC1 | inconclusive: 0.186 µM [cytotoxic] | 
13 | Cc1c(NC(=O)OCC2COCCN2)cn2ncnc(Nc3ccc4c(cnn4Cc4cccc(F)c4)c3)c12 (configuration not stated) | active: 18.6 µM | 
14 | COc1cc2ncnc(Oc3cccc(NC(=O)Nc4cc(C(C)(C)C(F)(F)F)on4)c3)c2cc1OC | active: 5.9 µM | 
15 | C[C@@H]1CC[C@@]2(OC1)OC1CC3C4CC=C5CC(O)CCC5(C)C4CCC3(C)C1[C@@H]2C (some centres not stated) |  | inactive
16 | COc1cccc2c1c(O)c(C(=O)N(C)c1ccc(C(F)(F)F)cc1)c(=O)n2C |  | inactive

Copied from the list.
AC50 with CCCS(=O)(=O)c1nc(NC2CC2)cc(-c2ccc3c(ccn3C3CC(C)(C)NC(C)(C)C3)c2)n1 reads active: 3.93 µM
AC50 with CSC[C@H]1CN(Cc2c[nH]c3c(N)ncnc23)C[C@@H]1O reads inconclusive: 37.2 µM [cytotoxic]

The list goes on.

Row | Structure (SMILES) | AC50 | outcome
17 | CC(=O)NCCCS(=O)(=O)O | inconclusive: 0.00091 µM [cytotoxic] | 
18 | CN(C)C(=O)C(CCN1CCC(O)(c2ccc(Cl)cc2)CC1)(c1ccccc1)c1ccccc1 | inconclusive: 18.6 µM [cytotoxic] | 
19 | O=C(Nc1ccc2[nH]nc(-c3ccncc3)c2c1)[C@@H]1CCN(CC(=O)N2CCN(c3ccc(-c4ncccn4)cc3)CC2)C1 | active: 1.05 µM | 
20 | O=C(/C=C\n1cnc(-c2cc(C(F)(F)F)cc(C(F)(F)F)c2)n1)NNc1ccccn1 | active: 2.95 µM | 
21 | COc1cc(N2CCN(C)CC2)ccc1Nc1nccc(-c2cn(C)c3cnccc23)n1 | inconclusive: 18.6 µM [cytotoxic] | 
22 | Cc1ccc(-n2c(C)cc(-c3nnc4n3CCCCC4)c2C)cc1 | inconclusive: 23.5 µM [cytotoxic] | 
23 | CCCCOC(=O)NS(=O)(=O)c1sc(CC(C)C)cc1-c1ccc(Cn2ccnc2)cc1 | inconclusive: 16.6 µM [cytotoxic] | 
24 | c1ccc(-c2ccc(CNc3nc(-c4ccccn4)nnc3-c3ccccc3)cc2)cc1 | inconclusive: 0.742 µM [cytotoxic] | 
25 | O=C1Nc2nc(-c3c(O)cccc3OCC3CC3)cc([C@@H]3CCCNC3)c2CO1 | inconclusive: 23.5 µM [cytotoxic] | 
26 | CCCc1cc(C)[nH]c(=O)c1CNC(=O)c1cc(-c2ccc(N3CCN(C(C)C)CC3)nc2)cc2c1cnn2C(C)C | active: 26.3 µM | 
27 | COc1cccc(-c2c(C)n(Cc3c(F)cccc3C(F)(F)F)c(=O)n(C[C@H](NCCCC(=O)O)c3ccccc3)c2=O)c1F |  | inactive
28 | Cc1cccc(CC(=O)N2CCc3c2ccc(-c2cn(C)c4ncnc(N)c24)c3F)n1 | inconclusive: 6.61 µM [cytotoxic] | 
29 | O=C(NO)c1cnc(NC2(c3ccccc3)CC2)nc1 | inconclusive: 0.263 µM [cytotoxic] | 
30 | Cc1nnn(C)c1-c1cnc2c3ccc(C(C)(C)O)cc3n([C@H](c3ccccc3)C3CCOCC3)c2c1 | inconclusive: 0.0166 µM [cytotoxic] | 
31 | O=C(NCCCNC(=O)c1ccc[nH]c1=O)c1cc(-c2ccccc2)on1 |  | inconclusive
32 | CCCCOc1nc(N)c2c(n1)N(Cc1cccc(CN3CCCC3)c1)CC(=O)N2 |  | inactive
